From paper PMC4732303 come the findings set out here.

Assay [1] addresses T1, VE-cadherin (vascular endothelial cadherin), endogenous in HUVECs (human (endogenous in HUVEC)) (UniProt P33151).
T1 sequence: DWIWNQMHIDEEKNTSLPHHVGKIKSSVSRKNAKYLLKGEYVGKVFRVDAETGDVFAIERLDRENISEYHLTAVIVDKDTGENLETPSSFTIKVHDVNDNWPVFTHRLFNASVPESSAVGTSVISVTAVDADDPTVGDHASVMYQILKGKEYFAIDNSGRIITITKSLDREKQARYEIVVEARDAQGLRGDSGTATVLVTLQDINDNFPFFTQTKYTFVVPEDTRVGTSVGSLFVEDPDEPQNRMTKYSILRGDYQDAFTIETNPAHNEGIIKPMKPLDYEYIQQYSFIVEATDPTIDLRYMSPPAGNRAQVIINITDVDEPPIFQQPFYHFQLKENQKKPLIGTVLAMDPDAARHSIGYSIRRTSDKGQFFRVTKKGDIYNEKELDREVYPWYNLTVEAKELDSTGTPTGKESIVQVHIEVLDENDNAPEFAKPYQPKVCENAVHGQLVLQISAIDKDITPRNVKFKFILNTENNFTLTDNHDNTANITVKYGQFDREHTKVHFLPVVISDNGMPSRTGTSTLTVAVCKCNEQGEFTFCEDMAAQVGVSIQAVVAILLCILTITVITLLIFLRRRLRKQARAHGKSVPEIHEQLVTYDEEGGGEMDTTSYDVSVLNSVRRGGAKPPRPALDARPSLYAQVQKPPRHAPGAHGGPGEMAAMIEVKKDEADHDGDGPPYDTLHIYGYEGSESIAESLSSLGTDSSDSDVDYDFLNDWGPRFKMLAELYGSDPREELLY
In words: co-IP; endogenous proteins from confluent HUVECs, untreated or stimulated with 10 nM BMP6 (30 or 60 min); TNE lysis buffer with 0.5% Triton X-100; bait precipitated with a specific antibody and protein A-Sepharose, western blot.

Assay [2] concerns the target T1, VE-cadherin (vascular endothelial cadherin), endogenous in HUVECs (human (endogenous in HUVEC)). The assay is described as follows: proximity ligation; in situ PLA (Duolink) in fixed HUVECs, untreated or BMP6 for 60 min; antibodies to intracellular epitopes of ALK2 or BMPRII combined with one to VE-cadherin; heteromers counted and normalized to untreated cells.
For assay [3], the target named is T2, human VE-cadherin, full-length coding sequence in pcDNA3.1, overexpressed (human) (UniProt P33151).
T2 sequence: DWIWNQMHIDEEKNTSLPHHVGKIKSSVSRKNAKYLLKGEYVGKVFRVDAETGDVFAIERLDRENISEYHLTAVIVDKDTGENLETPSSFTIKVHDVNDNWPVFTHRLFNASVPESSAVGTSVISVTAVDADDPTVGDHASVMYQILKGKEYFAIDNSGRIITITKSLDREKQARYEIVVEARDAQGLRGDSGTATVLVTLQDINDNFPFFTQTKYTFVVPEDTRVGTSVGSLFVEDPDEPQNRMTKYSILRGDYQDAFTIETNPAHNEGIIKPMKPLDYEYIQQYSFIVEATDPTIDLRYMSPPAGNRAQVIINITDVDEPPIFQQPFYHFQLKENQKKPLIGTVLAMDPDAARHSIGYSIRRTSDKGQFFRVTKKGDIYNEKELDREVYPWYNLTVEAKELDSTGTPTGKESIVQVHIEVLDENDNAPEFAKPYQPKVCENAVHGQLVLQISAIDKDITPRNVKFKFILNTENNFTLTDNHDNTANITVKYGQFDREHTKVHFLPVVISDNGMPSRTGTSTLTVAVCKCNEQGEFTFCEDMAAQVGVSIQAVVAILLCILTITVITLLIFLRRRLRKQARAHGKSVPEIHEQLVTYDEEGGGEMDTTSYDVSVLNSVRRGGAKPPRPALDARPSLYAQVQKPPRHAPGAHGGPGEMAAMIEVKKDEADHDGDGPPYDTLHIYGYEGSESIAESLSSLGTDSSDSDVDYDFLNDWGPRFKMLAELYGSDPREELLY
The assay is described as follows: co-IP; overexpressed proteins from transfected HEK293T cells; modified RIPA buffer (50 mM Tris-HCl pH 7.4, 150 mM NaCl, 0.5% NP-40, 0.1% SDS); bait precipitated with a specific or anti-HA antibody, normal IgG as control, western blot. Background: In western blotting, separated proteins are transferred to a membrane and probed.

Assay [4] concerns the target BMPRII-Myc (UniProt Q13873). In words: co-IP; HEK293T cells transfected with BMPRII-Myc and ALK2-HA with co-expressed VE-cadherin, with or without BMP6 for 45 min; BMPRII-Myc precipitated with a Myc-specific antibody; modified RIPA buffer.
The next assay addresses T3, BMPRII-Myc, Q13873.
T3 chain: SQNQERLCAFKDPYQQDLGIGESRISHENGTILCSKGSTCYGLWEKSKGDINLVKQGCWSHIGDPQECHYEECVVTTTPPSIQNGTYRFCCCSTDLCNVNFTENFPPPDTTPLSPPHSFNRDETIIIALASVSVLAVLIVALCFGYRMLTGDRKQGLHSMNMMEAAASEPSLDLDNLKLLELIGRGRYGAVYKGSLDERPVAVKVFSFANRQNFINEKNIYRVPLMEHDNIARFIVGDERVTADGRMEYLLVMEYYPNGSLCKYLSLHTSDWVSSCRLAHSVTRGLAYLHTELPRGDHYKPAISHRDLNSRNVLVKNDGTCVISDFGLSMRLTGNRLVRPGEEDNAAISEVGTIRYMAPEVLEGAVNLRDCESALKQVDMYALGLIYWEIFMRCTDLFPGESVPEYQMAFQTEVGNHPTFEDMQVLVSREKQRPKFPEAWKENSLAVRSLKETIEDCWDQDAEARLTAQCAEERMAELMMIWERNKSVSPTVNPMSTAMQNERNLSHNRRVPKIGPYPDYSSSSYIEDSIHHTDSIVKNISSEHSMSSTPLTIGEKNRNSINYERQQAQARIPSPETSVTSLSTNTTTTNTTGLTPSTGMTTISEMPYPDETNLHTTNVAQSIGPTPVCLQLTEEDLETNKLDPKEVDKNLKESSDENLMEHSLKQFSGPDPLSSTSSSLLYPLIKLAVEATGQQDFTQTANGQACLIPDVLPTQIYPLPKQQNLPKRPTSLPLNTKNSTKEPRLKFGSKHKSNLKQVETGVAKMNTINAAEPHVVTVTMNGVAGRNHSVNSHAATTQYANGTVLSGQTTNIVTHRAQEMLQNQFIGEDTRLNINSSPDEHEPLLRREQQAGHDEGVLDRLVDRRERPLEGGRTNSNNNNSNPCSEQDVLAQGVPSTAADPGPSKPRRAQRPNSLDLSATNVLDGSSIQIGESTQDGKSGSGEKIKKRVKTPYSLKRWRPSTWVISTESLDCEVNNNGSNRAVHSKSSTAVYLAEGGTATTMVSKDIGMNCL
Described as above. The conditions noted are these: remark: other sources report otherwise.

The target of assay [5] is BMPRII-Myc (UniProt Q13873). The assay is described as follows: co-IP; HEK293T cells transfected with BMPRII-Myc and ALK2-HA without VE-cadherin, with or without BMP6 for 45 min; BMPRII-Myc precipitated with a Myc-specific antibody; modified RIPA buffer.

No constants are given. Whether binding was seen depends on the method and setting. Binding seen in cells or lysates may run through a third protein. Some results given as binding are weak or reduced against the parent protein; the word gives no strength. For some assays here: Tags and fused reporters may be left off the sequences shown.

As for “BMP type II receptor (BMPRII), endogenous in HUVECs (from UniProt Q13873 27-1038)”, the binding result in assay [1] and in assay [2] was “binds” throughout. For the molecule “BMPRII-HA (from UniProt Q13873 27-1038) (receptor)”, the binding result in assay [3] was “binds”.

B1: human VE-cadherin, full-length coding sequence in pcDNA3.1, overexpressed (protein, UniProt P33151 48-784)
chain: DWIWNQMHIDEEKNTSLPHHVGKIKSSVSRKNAKYLLKGEYVGKVFRVDAETGDVFAIERLDRENISEYHLTAVIVDKDTGENLETPSSFTIKVHDVNDNWPVFTHRLFNASVPESSAVGTSVISVTAVDADDPTVGDHASVMYQILKGKEYFAIDNSGRIITITKSLDREKQARYEIVVEARDAQGLRGDSGTATVLVTLQDINDNFPFFTQTKYTFVVPEDTRVGTSVGSLFVEDPDEPQNRMTKYSILRGDYQDAFTIETNPAHNEGIIKPMKPLDYEYIQQYSFIVEATDPTIDLRYMSPPAGNRAQVIINITDVDEPPIFQQPFYHFQLKENQKKPLIGTVLAMDPDAARHSIGYSIRRTSDKGQFFRVTKKGDIYNEKELDREVYPWYNLTVEAKELDSTGTPTGKESIVQVHIEVLDENDNAPEFAKPYQPKVCENAVHGQLVLQISAIDKDITPRNVKFKFILNTENNFTLTDNHDNTANITVKYGQFDREHTKVHFLPVVISDNGMPSRTGTSTLTVAVCKCNEQGEFTFCEDMAAQVGVSIQAVVAILLCILTITVITLLIFLRRRLRKQARAHGKSVPEIHEQLVTYDEEGGGEMDTTSYDVSVLNSVRRGGAKPPRPALDARPSLYAQVQKPPRHAPGAHGGPGEMAAMIEVKKDEADHDGDGPPYDTLHIYGYEGSESIAESLSSLGTDSSDSDVDYDFLNDWGPRFKMLAELYGSDPREELLY
Take B1: the binding result with BMPRII-Myc [4] is listed as “binds”.

B2: C-terminally HA-tagged human ALK2 (ALK2-HA), Q04771 21-509 (receptor)
chain: MEDEKPKVNPKLYMCVCEGLSCGNEDHCEGQQCFSSLSINDGFHVYQKGCFQVYEQGKMTCKTPPSPGQAVECCQGDWCNRNITAQLPTKGKSFPGTQNFHLEVGLIILSVVFAVCLLACLLGVALRKFKRRNQERLNPRDVEYGTIEGLITTNVGDSTLADLLDHSCTSGSGSGLPFLVQRTVARQITLLECVGKGRYGEVWRGSWQGENVAVKIFSSRDEKSWFRETELYNTVMLRHENILGFIASDMTSRHSSTQLWLITHYHEMGSLYDYLQLTTLDTVSCLRIVLSIASGLAHLHIEIFGTQGKPAIAHRDLKSKNILVKKNGQCCIADLGLAVMHSQSTNQLDVGNNPRVGTKRYMAPEVLDETIQVDCFDSYKRVDIWAFGLVLWEVARRMVSNGIVEDYKPPFYDVVPNDPSFEDMRKVVCVDQQRPNIPNRWFSDPTLTSLAKLMKECWYQNPSARLTALRIKKTLTKIDNSLDKLKTDC
On to B2, for which the binding result with BMPRII-Myc, Q13873 was “binds”.

B3: C-terminally HA-tagged human ALK2 (ALK2-HA) (receptor, UniProt Q04771 21-509)
chain: MEDEKPKVNPKLYMCVCEGLSCGNEDHCEGQQCFSSLSINDGFHVYQKGCFQVYEQGKMTCKTPPSPGQAVECCQGDWCNRNITAQLPTKGKSFPGTQNFHLEVGLIILSVVFAVCLLACLLGVALRKFKRRNQERLNPRDVEYGTIEGLITTNVGDSTLADLLDHSCTSGSGSGLPFLVQRTVARQITLLECVGKGRYGEVWRGSWQGENVAVKIFSSRDEKSWFRETELYNTVMLRHENILGFIASDMTSRHSSTQLWLITHYHEMGSLYDYLQLTTLDTVSCLRIVLSIASGLAHLHIEIFGTQGKPAIAHRDLKSKNILVKKNGQCCIADLGLAVMHSQSTNQLDVGNNPRVGTKRYMAPEVLDETIQVDCFDSYKRVDIWAFGLVLWEVARRMVSNGIVEDYKPPFYDVVPNDPSFEDMRKVVCVDQQRPNIPNRWFSDPTLTSLAKLMKECWYQNPSARLTALRIKKTLTKIDNSLDKLKTDC
Turning to B3, the binding entry with BMPRII-Myc [5] is “binds weakly”; in assay [3], “binds”.

B4: activin receptor-like kinase 2 (ALK2), endogenous in HUVECs (receptor, UniProt Q04771 21-509)
chain: MEDEKPKVNPKLYMCVCEGLSCGNEDHCEGQQCFSSLSINDGFHVYQKGCFQVYEQGKMTCKTPPSPGQAVECCQGDWCNRNITAQLPTKGKSFPGTQNFHLEVGLIILSVVFAVCLLACLLGVALRKFKRRNQERLNPRDVEYGTIEGLITTNVGDSTLADLLDHSCTSGSGSGLPFLVQRTVARQITLLECVGKGRYGEVWRGSWQGENVAVKIFSSRDEKSWFRETELYNTVMLRHENILGFIASDMTSRHSSTQLWLITHYHEMGSLYDYLQLTTLDTVSCLRIVLSIASGLAHLHIEIFGTQGKPAIAHRDLKSKNILVKKNGQCCIADLGLAVMHSQSTNQLDVGNNPRVGTKRYMAPEVLDETIQVDCFDSYKRVDIWAFGLVLWEVARRMVSNGIVEDYKPPFYDVVPNDPSFEDMRKVVCVDQQRPNIPNRWFSDPTLTSLAKLMKECWYQNPSARLTALRIKKTLTKIDNSLDKLKTDC
Consider B4, for which the binding result in assay [2] was “binds”.
